Laboratory results: patent US8188055B2, “Inactivators of O6-alkylguanine-DNA alkyltransferase” (The United States of America, as represented by the …, priority 2007, dated 2012)
Some of these results come from one statement about several compounds together.

assay: Release of folate on incubation in neutral solution (ester stability); assay type: physicochemical

Stability when incubated in neutral solution, relatively stable:
Nc1nc(OCc2ccccc2)c2ncn([C@H]3CC(OC(=O)CC[C@H](NC(=O)c4ccc(NCc5cnc6nc(N)[nH]c(=O)c6n5)cc4)C(=O)O)[C@@H](CO)O3)c2n1 (stereo partly drawn) [Compound 1, O^6-Benzyl-3′-O-[γ-folyl]-2′-deoxyguanosine]
Nc1nc(OCc2ccccc2)c2ncn([C@H]3CC(O)[C@@H](COC(=O)CC[C@H](NC(=O)c4ccc(NCc5cnc6nc(N)[nH]c(=O)c6n5)cc4)C(=O)O)O3)c2n1 (stereo partly drawn) [Compound 2, O^6-Benzyl-5′-O-[γ-folyl]-2′-deoxyguanosine]
Nc1nc(OCc2ccc(COC(=O)CC[C@H](NC(=O)c3ccc(NCc4cnc5nc(N)[nH]c(=O)c5n4)cc3)C(=O)O)cc2)c2nc[nH]c2n1 [Compound 3, O^6-[4-[(γ-folyl)-oxymethyl]benzyl]guanine]
